Assay results: PubChem BioAssay AID248 (DTP/NCI, 2004)
The list does not hold the whole screen: it covers a few groups of compounds. Other doses and runs of a compound may be missing. T/C is the treated group as % of the vehicle group. Some doses have a count of surviving animals in place of a T/C: the source holds a T/C of zero for them, seemingly a mark for toxic or unscored doses. Some doses without a T/C left all or most animals alive at the check, yet need not have been tolerated: survival well below the control is almost never listed, so the zero probably covers shortened survival too. Counts of survivors are from the toxicity check (mostly the fifth day) where no day follows; animals may have died later. Schedule codes are those of the source, taken here to give the interval after Q, in days (D) or hours (H), and the number of doses after X. Some entries hold several experiments; the results are listed from low to high. Some schedules carry Z or #; the key to these is not given. Where survival is the endpoint, the PubChem record calls one and a half times the control and up active, and a quarter to a half above the control has no call in these data; cut-offs in other NCI protocols can differ. Counts like (3×) give the number of equal values in this list. Some T/C values carry the count of animals alive at the toxicity check (mostly the fifth day); where neither a count nor a note follows, no animal had died by that day.

Tested on: L1210 leukemia ip in BDF1 mice, survival T/C
Test: NCI In Vivo Anticancer Drug Screen. Data for tumor model L1210 Leukemia (intraperitoneal) in B6D2F1 (BDF1) mice
Details: T/C endpoint: mean survival time, higher T/C = longer survival
[1] = dose: 2.0 mg/kg/injection, schedule: Q01DX Z (ip), vehicle: carboxymethylcellulose (CMC)
[2] = dose: 4.0 mg/kg/injection, schedule: Q01DX009 (ip), vehicle: saline
[3] = dose: 4.0 mg/kg/injection, schedule: Q01DX Z (ip), vehicle: carboxymethylcellulose (CMC)
[4] = dose: 8.0 mg/kg/injection, schedule: Q01DX009 (ip), vehicle: saline

Cc1[nH]c(=O)[nH]c(=O)c1N(CCCl)CCCl
T/C (dose: 0.1 mg/kg/injection, schedule: Q01DX Z (ip), vehicle: carboxymethylcellulose (CMC)): 110 % of control
T/C (dose: 0.2 mg/kg/injection, schedule: Q01DX Z (ip), vehicle: carboxymethylcellulose (CMC)): 115 % of control
T/C (dose: 0.25 mg/kg/injection, schedule: Q01DX010 (ip), vehicle: saline): 103 % of control (2×)
T/C (dose: 0.25 mg/kg/injection, schedule: Q#A X Z (ip), vehicle: saline): 102 % of control
T/C (dose: 0.44 mg/kg/injection, schedule: Q01DX Z (ip), vehicle: carboxymethylcellulose (CMC)): 118 % of control
T/C (dose: 0.5 mg/kg/injection, schedule: Q01DX001 (ip), vehicle: saline): 106 % of control
T/C (dose: 0.5 mg/kg/injection, schedule: Q01DX006 (iv), vehicle: saline): 110 % of control
T/C (dose: 0.5 mg/kg/injection, schedule: Q01DX010 (ip), vehicle: saline): 106 and 114 % of control [5 of 6 alive]
T/C (dose: 0.5 mg/kg/injection, schedule: Q01DX Z (im), vehicle: saline): 112 % of control
T/C (dose: 0.5 mg/kg/injection, schedule: Q01DX Z (ip), vehicle: carboxymethylcellulose (CMC)): 113 and 127 % of control
T/C (dose: 0.5 mg/kg/injection, schedule: Q01DX Z (ip), vehicle: saline): 122 % of control
T/C (dose: 0.5 mg/kg/injection, schedule: Q01DX Z (sc), vehicle: saline): 108 % of control
T/C (dose: 0.5 mg/kg/injection, schedule: Q#A X Z (ip), vehicle: saline): 96 % of control
T/C (dose: 0.6 mg/kg/injection, schedule: Q01DX Z (ip), vehicle: carboxymethylcellulose (CMC)): 116 % of control
T/C (dose: 0.66 mg/kg/injection, schedule: Q01DX Z (ip), vehicle: carboxymethylcellulose (CMC)): 111 % of control
T/C (dose: 0.9 mg/kg/injection, schedule: Q01DX Z (ip), vehicle: carboxymethylcellulose (CMC)): 107 % of control
T/C (dose: 1.0 mg/kg/injection, schedule: Q01DX001 (ip), vehicle: saline): 107 % of control
survivor count (dose: 1.0 mg/kg/injection, schedule: Q01DX006 (iv), vehicle: saline): 1 of 6
T/C (dose: 1.0 mg/kg/injection, schedule: Q01DX009 (ip), vehicle: saline): 133, 140, 164 [5 of 6 alive], 167 % of control
T/C (dose: 1.0 mg/kg/injection, schedule: Q01DX010 (ip), vehicle: saline): 126 and 129 % of control
T/C (dose: 1.0 mg/kg/injection, schedule: Q01DX Z (im), vehicle: saline): 122 % of control
T/C (dose: 1.0 mg/kg/injection, schedule: Q01DX Z (ip), vehicle: carboxymethylcellulose (CMC)): 120, 125, 142 % of control
T/C (dose: 1.0 mg/kg/injection, schedule: Q01DX Z (ip), vehicle: saline): 130 % of control
T/C (dose: 1.0 mg/kg/injection, schedule: Q01DX Z (sc), vehicle: saline): 122 % of control
T/C (dose: 1.0 mg/kg/injection, schedule: Q#A X Z (ip), vehicle: saline): 94 % of control
T/C (dose: 1.3 mg/kg/injection, schedule: Q01DX Z (ip), vehicle: carboxymethylcellulose (CMC)): 130 % of control
T/C (dose: 1.5 mg/kg/injection, schedule: Q03DX006 (ip), vehicle: saline): 102 % of control
T/C (dose: 1.6 mg/kg/injection, schedule: Q01DX Z (ip), vehicle: carboxymethylcellulose (CMC)): 128 % of control
T/C (dose: 2.0 mg/kg/injection, schedule: Q01DX001 (ip), vehicle: saline): 104 % of control
T/C (dose: 2.0 mg/kg/injection, schedule: Q01DX006 (iv), vehicle: saline): 116 % of control
T/C (dose: 2.0 mg/kg/injection, schedule: Q01DX009 (ip), vehicle: saline): 112, 114, 137 [5 of 6 alive], 151 % of control [5 of 6 alive]
T/C (dose: 2.0 mg/kg/injection, schedule: Q01DX010 (ip), vehicle: saline): 122, 141, 163 % of control
T/C (dose: 2.0 mg/kg/injection, schedule: Q01DX Z (im), vehicle: saline): 154 % of control
T/C [1]: 103 [6 of 7 alive], 119, 140 % of control
survivor count [1]: 3 of 6
T/C (dose: 2.0 mg/kg/injection, schedule: Q01DX Z (ip), vehicle: saline): 170 % of control
T/C (dose: 2.0 mg/kg/injection, schedule: Q01DX Z (oral), vehicle: saline): 107 % of control
T/C (dose: 2.0 mg/kg/injection, schedule: Q01DX Z (sc), vehicle: saline): 145 % of control
T/C (dose: 2.0 mg/kg/injection, schedule: Q#A X Z (ip), vehicle: saline): 94 % of control
survivor count (dose: 3.0 mg/kg/injection, schedule: Q01DX Z (ip), vehicle: carboxymethylcellulose (CMC)): 4 of 6
T/C (dose: 3.0 mg/kg/injection, schedule: Q03DX006 (ip), vehicle: saline): 113 % of control
T/C (dose: 4.0 mg/kg/injection, schedule: Q01DX001 (ip), vehicle: saline): 119 and 135 % of control
T/C (dose: 4.0 mg/kg/injection, schedule: Q01DX006 (iv), vehicle: saline): 107 and 116 % of control [5 of 6 alive]
T/C [2]: 90 (2×) and 100 % of control [4 of 6 alive]
survivor count [2]: 4 of 6
T/C (dose: 4.0 mg/kg/injection, schedule: Q01DX010 (ip), vehicle: saline): 139 % of control
survivor count (dose: 4.0 mg/kg/injection, schedule: Q01DX Z (im), vehicle: saline): 1 of 6
T/C [3]: 100 % of control [5 of 6 alive]
survivor count [3]: 6 of 6
T/C (dose: 4.0 mg/kg/injection, schedule: Q01DX Z (ip), vehicle: saline): 116 % of control
T/C (dose: 4.0 mg/kg/injection, schedule: Q01DX Z (oral), vehicle: saline): 107 % of control
T/C (dose: 4.0 mg/kg/injection, schedule: Q01DX Z (sc), vehicle: saline): 120 % of control [5 of 6 alive]
T/C (dose: 4.0 mg/kg/injection, schedule: Q07DX003 (ip), vehicle: saline): 105 % of control
T/C (dose: 4.0 mg/kg/injection, schedule: Q#A X Z (ip), vehicle: saline): 112 % of control
survivor count (dose: 4.5 mg/kg/injection, schedule: Q01DX Z (ip), vehicle: carboxymethylcellulose (CMC)): 2 of 6
survivor count (dose: 6.0 mg/kg/injection, schedule: Q01DX Z (ip), vehicle: carboxymethylcellulose (CMC)): 3 of 6 and 6 of 6
T/C (dose: 6.0 mg/kg/injection, schedule: Q03DX006 (ip), vehicle: saline): 122 % of control [5 of 6 alive]
survivor count (dose: 6.75 mg/kg/injection, schedule: Q01DX Z (ip), vehicle: carboxymethylcellulose (CMC)): 5 of 6
T/C (dose: 8.0 mg/kg/injection, schedule: Q01DX001 (ip), vehicle: saline): 111 and 143 % of control
T/C (dose: 8.0 mg/kg/injection, schedule: Q01DX006 (iv), vehicle: saline): 131 % of control [5 of 6 alive]
T/C [4]: 97 % of control [4 of 6 alive]
survivor count [4]: 1 of 6, 4 of 6, 5 of 6
T/C (dose: 8.0 mg/kg/injection, schedule: Q01DX010 (ip), vehicle: saline): 94 % of control
T/C (dose: 8.0 mg/kg/injection, schedule: Q01DX Z (oral), vehicle: saline): 110 % of control
T/C (dose: 8.0 mg/kg/injection, schedule: Q07DX003 (ip), vehicle: saline): 113 % of control
T/C (dose: 8.0 mg/kg/injection, schedule: Q#A X Z (ip), vehicle: saline): 134 % of control
T/C (dose: 12.0 mg/kg/injection, schedule: Q03DX006 (ip), vehicle: saline): 145 % of control
T/C (dose: 16.0 mg/kg/injection, schedule: Q01DX001 (ip), vehicle: saline): 108 and 122 % of control
T/C (dose: 16.0 mg/kg/injection, schedule: Q01DX006 (iv), vehicle: saline): 145 % of control
T/C (dose: 16.0 mg/kg/injection, schedule: Q01DX Z (oral), vehicle: saline): 117 % of control
T/C (dose: 16.0 mg/kg/injection, schedule: Q07DX003 (ip), vehicle: saline): 134 % of control
T/C (dose: 16.0 mg/kg/injection, schedule: Q#A X Z (ip), vehicle: saline): 150 % of control
T/C (dose: 24.0 mg/kg/injection, schedule: Q03DX006 (ip), vehicle: saline): 142 % of control
T/C (dose: 32.0 mg/kg/injection, schedule: Q01DX001 (ip), vehicle: saline): 115 and 145 % of control
T/C (dose: 32.0 mg/kg/injection, schedule: Q01DX006 (iv), vehicle: saline): 139 % of control
T/C (dose: 32.0 mg/kg/injection, schedule: Q01DX Z (oral), vehicle: saline): 129 % of control
T/C (dose: 32.0 mg/kg/injection, schedule: Q07DX003 (ip), vehicle: saline): 187 % of control
survivor count (dose: 32.0 mg/kg/injection, schedule: Q#A X Z (ip), vehicle: saline): 4 of 6
T/C (dose: 48.0 mg/kg/injection, schedule: Q03DX006 (ip), vehicle: saline): 142 % of control
T/C (dose: 64.0 mg/kg/injection, schedule: Q01DX001 (ip), vehicle: saline): 98 % of control [4 of 6 alive]
T/C (dose: 64.0 mg/kg/injection, schedule: Q01DX006 (iv), vehicle: saline): 98 % of control [5 of 6 alive]
survivor count (dose: 64.0 mg/kg/injection, schedule: Q01DX Z (oral), vehicle: saline): 6 of 6
T/C (dose: 64.0 mg/kg/injection, schedule: Q07DX003 (ip), vehicle: saline): 146 % of control [5 of 6 alive]
survivor count (dose: 96.0 mg/kg/injection, schedule: Q03DX006 (ip), vehicle: saline): 6 of 6
T/C (dose: 128.0 mg/kg/injection, schedule: Q01DX001 (ip), vehicle: saline): 91 % of control [4 of 6 alive]
survivor count (dose: 128.0 mg/kg/injection, schedule: Q01DX006 (iv), vehicle: saline): 6 of 6
survivor count (dose: 128.0 mg/kg/injection, schedule: Q01DX Z (oral), vehicle: saline): 5 of 6
survivor count (dose: 128.0 mg/kg/injection, schedule: Q07DX003 (ip), vehicle: saline): 4 of 6
